In PubChem BioAssay AID1487 (National Center for Advancing Translational Sciences (NCATS), 2009) one finds AC50 data, which are given here for 55 molecules.

What is called AC50 is the midpoint of the concentration-response curve, whichever way the signal moves.

The other results are listed elsewhere or left out. These are further read-outs of the screen, such as a control signal, another cell line or another target. No call is given for them. Compounds called inactive in the main read-out are mostly missing here. Words in brackets tell the shape of the fitted curve; partial curves, single points and poor fits give uncertain potencies.

The test in a line: qHTS Assay for Modulators of Lamin A Splicing. The following applies: HeLa LMNA splicing GFP/RFP minigene ratio, 48 h. An excerpt: NCGC Assay Overview: Hutchinson-Gilford Progeria Syndrome (HGPS) is a pediatric premature aging disease caused by a spontaneous mutation in the lamin A/C (LMNA) gene. The mutation activates a cryptic splice site in the LMNA pre-mRNA which results in production of a pre-lamin A protein that cannot be processed properly. The mutant protein accumulates in the nucleus and negatively affects numerous cellular functions. Correction of the splicing defect in HGPS patient cells using a targeted oligonucleotide (exo11) leads to reversal of the cellular disease phenotypes. To identify small molecule modulators of aberrant LMNA splicing, a homogenous assay was constructed in HeLa cells that used a GFP containing minigene to report on correction of aberrant splicing in lamin A and a RFP (DsRed2) to report on cell viability, uniformity and nonspecific effects on the assay signal. This assay was adapted to laser-scanning microplate cytometry (Acumen, TTP Labtech) where miniaturization of the assay to a 1,536-well plate format was possible. References: Bowen, W. P.; Wylie, P. G. Application of Laser-Scanning Fluorescence Microplate Cytometry in High Content Screening. Assay Drug Dev Technol 2006;4:209-221. Scaffidi P, Misteli T. Reversal of the cellular phenotype in the premature aging disease Hutchinson-Gilford progeria syndrome. Nat.
NCGC Assay Protocol Summary: Reagents/Controls: Stable clones expressing DsRed2 and lamin A-EGFP were generated by Cell and Molecular Technologies in S3 HeLa cells. HeLa cells were prepared for the assay when they were 70-90% confluent. The cells were counted and resuspended in Opti-MEM I (no phenol red; Gibco), 2% FBS, 1% penicillin/ streptomycin (Gibco) at concentration of 120 cells/uL concentration. The suspension was passed through a Falcon basket filter with pore size 40um (Beckton Dickson). Control titrations: column […] 1536-well plate contained a sixteen point titration (1:2 dilutions) in duplicate of ancitabine (Sigma: A8598) beginning at 40 uM final concentration. Column 2 contained a sixteen point titration (1:2 dilutions) of cycloheximide beginning at 1.4 mM final concentration. Column 3 contained ancitabine at 40 uM and column 4 contained was the vehicle control (0.5% DMSO final concentration). Assay Steps: 5 uL of HeLa cells were plated in Aurora LoBase black clear bottom (cyclic-olefin polymer) 1536-well plates at a final density of 600 cells/well. Controls and library compounds were added with a 1536-well pin array using the Kalypsys pin-tool. The plates were then incubated for 48 hrs in a cell-culture incubator (37 °C; 5% CO2, 98% humidity). Following incubation the plates were read on the Acumen Explorer using the 488 nm laser. Data was collected on objects between 10 and 100 um in size. Cell objects were defined by a 15 um width x 10 um depth filter. The ratio of the total object intensity in PMT1 (500-530 nm emission; GFP) over PMT3 (575-640 nm emission; RFP) was calculated for analysis. Keywords: NIH Roadmap, MLSCN, MLI, MLSMR, qHTS, NCGC, lamin A, Progeria, RNA splicing.
In general terms: qHTS replaces the single test concentration by a dilution series.

Where [1] appears, read: measured here: GFP splicing reporter channel.
The mark [2] stands for this setting: measured here: RFP viability control channel.

On to `CCC(C)NC(=O)c1ccc2c(c1)nc1n2CCCCC1` (stereo not given), for which the AC50 under setting [1] was 0.126 µM [rising, full curve, poor fit]. On to `CCN(CC)S(=O)(=O)c1cccc(-c2n[nH]c(=S)n2/N=C/c2ccc(Br)cc2)c1`, for which the AC50 was 17.8 µM [rising, partial curve, poor fit] under setting [1] and 35.5 µM [rising, single point] under setting [2]. `Cc1cccc(-c2ncc(CN3CCC(CO)(CCCc4ccccc4)CC3)cn2)c1`: the AC50 under setting [2] was 12.6 µM [falling, single point]. `CCOC(=O)CNC(=O)Nc1cc(C(=O)NCc2ccc(C(C)C)cc2)ccc1N1CCCC1`: the AC50 under setting [2] was 20 µM [falling, single point]. With `N#Cc1c(C(F)(F)F)cc(-c2ccco2)nc1SCc1ccccn1`, the AC50 under setting [1] was 4.47 µM [rising, partial curve, poor fit]. With `COc1ccc(Nc2ccc(Cl)cc2)c(C(=O)O)c1`, the AC50 under setting [2] was 14.1 µM [rising, partial curve]. With `CC(C)c1ccc(/C=C/C2=NNC(=O)CC2)cc1`, the AC50 under setting [2] is 2 µM [falling, full curve]. `Cn1c(=O)c(=O)n(C)c2cc(S(=O)(=O)N3CCc4ccccc43)ccc21`: under setting [1], the AC50 was 22.4 µM [rising, single point]. Turning to `O=C(Nc1cccc2ccccc12)c1ccc(OC(=S)N2CCOCC2)cc1`, the AC50 reads like this: under setting [1], 2.51 µM [rising, full curve, poor fit]; under setting [2], 11.2 µM [rising, partial curve].

As for `Cc1ccc(S(=O)(=O)N(C)C)cc1NC(=S)NC12CC3CC(CC(C3)C1)C2`, the AC50 under setting [2] is 35.5 µM [rising, single point]. On to `COc1ccc(-c2nc(=S)c3c([nH]2)Oc2ccc(C)cc2C3)cc1O`, for which the AC50 is, setting by setting: under setting [1], 10 µM [rising, partial curve, poor fit]; under setting [2], 10 µM [rising, partial curve, poor fit]. With `Cc1ccc(-n2nnc3c(=O)oc4ccccc4c32)cc1`, the AC50 under setting [1] is 25.1 µM [falling, single point].

Consider `CCCn1nc(C(=O)OCC(=O)Nc2cccc(OC)c2)c2ccccc2c1=O`, for which the AC50 runs as follows: under setting [1], 0.0158 µM [falling, full curve, poor fit]; under setting [2], 0.00891 µM [falling, full curve, poor fit].

For the molecule `O=C(c1cc(-c2cccs2)on1)N1CCN(c2ccccc2)CC1`, the AC50 under setting [1] is 35.5 µM [rising, single point] and the AC50 under setting [2] was 35.5 µM [rising, single point]. For the molecule `CCOC(=O)c1c2ccc(OCC(=O)N/N=C/c3ccc(C)cc3)cc2n2ccccc12`, the AC50 under setting [2] was 3.98 µM [falling, partial curve]. Consider `COCCN(C(=O)CSc1nnc(C)n1-c1ccccc1)c1c(N)n(Cc2ccccc2)c(=O)[nH]c1=O`, for which the AC50 under setting [2] is 0.00794 µM [falling, full curve, poor fit]. Turning to `Cn1c(=O)c2c(nc(Br)n2CCSc2ncccn2)n(C)c1=O`, the AC50 under setting [1] was 3.16 µM [rising, partial curve]. For the molecule `COC/C=C/C1=CC2=CC(=O)C(C)(OC(=O)c3cnc4ccccc4n3)C(=O)C2=CN1CC1CC1` (stereo not given), the AC50 under setting [1] is 1.26 µM [rising, single point] and the AC50 under setting [2] is 1.26 µM [rising, single point]. As to `Cc1ccc(NC(=O)CCCCCNS(=O)(=O)c2ccc(C)cc2)cc1`, the AC50 reads like this: under setting [1], 10 µM [rising, partial curve]; under setting [2], 12.6 µM [rising, partial curve]. `Nc1ncnc2c1nc(Br)n2C1OC(CO)C(O)C1O` (stereo not given): the AC50 under setting [1] was 4.47 µM [rising, full curve] and the AC50 under setting [2] was 7.08 µM [rising, partial curve].

Consider `CCc1ccc2c(c1)c1nc(C)sc1n2CC`, for which the AC50 under setting [1] was 20 µM [falling, single point]. Turning to `Cc1[nH]nc2c1C(c1ccsc1)C1=C(CC(C)(C)CC1=O)N2` (stereo not given), the AC50 under setting [2] was 1.58 µM [rising, full curve, poor fit].

Take `CCN(CC)C(=S)Nc1ccc(Cl)c(Cl)c1`: the AC50 reads like this: under setting [1], 14.1 µM [rising, single point]; under setting [2], 15.8 µM [rising, partial curve].

As for `C#CCOCCOCCOCCNc1nc(N2CCN(C(=O)[C@H](C(C)C)n3cc(CCO)nn3)CC2)nc(N2CCN(C(=O)[C@H](C(C)C)n3cc(CCO)nn3)CC2)n1`, under setting [1], the half-maximal activity concentration (AC50) was 3.98 µM [falling, partial curve, poor fit]. For `O=C(Nc1ccc(Cl)c(Cl)c1)OCCNC(=O)c1ccncc1`, the AC50 under setting [2] is 0.158 µM [rising, full curve, poor fit]. As for `CC(C)c1ccc(NC(=O)c2cc(S(=O)(=O)N3CCc4ccccc4C3)ccc2F)cc1`, the AC50 under setting [1] was 7.08 µM [rising, partial curve, poor fit]. For `Cc1ccc(CC(=O)Nc2cc([N+](=O)[O-])ccc2F)cc1`, the AC50 under setting [1] was 0.316 µM [falling, partial curve] and the AC50 under setting [2] is 0.251 µM [falling, full curve]. As for `CC[n+]1c(/C=C2\C=C(C)CC(C)C2)sc2ccccc21` (stereo not given), under setting [1], the AC50 was 11.2 µM [rising, single point]. As to `Cc1ccc(Nc2nc(CSc3nnc(-c4cccnc4)n3-c3ccccc3F)cs2)cc1`, the AC50 by setting is: under setting [1], 11.2 µM [rising, partial curve]; under setting [2], 17.8 µM [rising, partial curve]. Take `COc1c(C)cc(C(=O)C2CCCN(C(=O)Cn3ccc(C)n3)C2)cc1C` (stereo not given): the AC50 under setting [1] is 3.16 µM [rising, single point].

As to `Oc1ccccc1-c1cc(C(F)(F)C(F)F)[nH]n1`, the AC50 under setting [1] was 11.2 µM [rising, partial curve] and the AC50 under setting [2] is 15.8 µM [rising, single point]. Turning to `COc1ccc(CNc2ncnc3c2cnn3-c2ccc(Cl)cc2)cc1`, the AC50 under setting [2] was 0.501 µM [falling, full curve]. As to `O=C(CSc1nc2ccc(Cl)cc2[nH]1)NCCc1ccccc1`, the AC50 under setting [1] was 14.1 µM [rising, single point] and the AC50 under setting [2] was 14.1 µM [rising, single point]. On to `Brc1ccc(C2C3=C(Nc4ncnn42)c2ccccc2OC3c2ccncc2)cc1` (stereo not given), for which the AC50 under setting [1] is 35.5 µM [rising, single point] and the AC50 under setting [2] was 31.6 µM [rising, single point]. `Cc1ccc(CSC2=Nc3ccccc3C3=NC(CCC(=O)NCc4cccs4)C(=O)N23)c(C)c1` (stereo not given): the AC50 by setting is: under setting [1], 10 µM [rising, partial curve, poor fit]; under setting [2], 10 µM [rising, partial curve, poor fit]. As to `O=C(O)c1ccccc1C(=O)NCC(O)c1ccccc1` (stereo not given), the AC50 under setting [1] was 3.55 µM [falling, partial curve, poor fit]. In the case of `CC(=O)c1c(C)[nH]c(C(=O)OCC(=O)Nc2cc(S(=O)(=O)N3CCCCC3)ccc2C)c1C`, the AC50 under setting [2] was 12.6 µM [rising, partial curve]. On to `CCOC(=O)c1ccc(N2CCN(c3cc(Cl)ccc3C)CC2)c(NC(=O)Nc2ccc(OCC)cc2)c1`, for which the AC50 reads like this: under setting [1], 20 µM [rising, single point]; under setting [2], 35.5 µM [rising, single point]. Take `CCC(Oc1ccccc1)C(=O)N1CCN(Cc2cc(=O)n3nc(-c4cccc(C)c4)sc3n2)CC1` (stereo not given): the AC50 under setting [1] was 15.8 µM [falling, single point] and the AC50 under setting [2] was 11.2 µM [falling, partial curve]. As to `COc1ccc(-c2cc(-c3cc(OC)ccc3O)[nH]n2)cc1`, the AC50 under setting [1] is 7.08 µM [rising, partial curve, poor fit] and the AC50 under setting [2] was 10 µM [rising, single point]. `O=C(NCCC1=CCCCC1)NC12CC3CC(CC(C3)C1)C2`: the AC50 under setting [2] was 17.8 µM [rising, single point]. With `Cn1c(CCN2CCN(c3ccc(F)cc3)CC2)nc2cc(NC(=O)c3ccco3)ccc21`, the AC50 was 0.631 µM [rising, partial curve, poor fit] under setting [1] and 12.6 µM [rising, partial curve] under setting [2]. Regarding `CC(C)OC(=O)CC12CN3CN(C1)CC(CC(=O)OC(C)C)(C3)C2=O`, under setting [1], the AC50 is 3.55 µM [rising, single point]. For `CC(=O)c1oc2ccccc2c1NC(=O)CN1CCCCC1`, under setting [2], the AC50 is 35.5 µM [rising, single point]. Turning to `NC(=O)NCC(=O)N1CCC(C(O)(c2ccccc2)c2ccccc2)CC1`, under setting [2], the AC50 is 4.47 µM [falling, full curve, poor fit]. With `c1ccc(-n2ncc3c2ncn2nc(CSc4nc5ccccc5s4)nc32)cc1`, the AC50 under setting [2] is 5.62 µM [rising, single point]. As to `[O]=[Bi][O][Bi]=[O]`, the AC50 under setting [2] was 3.16 µM [rising, partial curve, poor fit]. Consider `CCN(Cc1cnn(C)c1)Cc1nc(Cc2ccccc2Cl)no1`, for which the AC50 under setting [2] is 5.01 µM [falling, full curve, poor fit]. For the molecule `CSc1nc(N)c(C(=O)Nc2ccc([N+](=O)[O-])cc2)s1`, the AC50 under setting [1] is 3.16 µM [falling, partial curve, poor fit]. Take `COc1cc(-n2nnnc2SCC(=O)N2CCN(c3ccc(F)cc3)CC2)c(OC)cc1Cl`: under setting [2], the AC50 is 35.5 µM [rising, single point].

In the case of `COc1cccc(C2NC(=O)c3ccccc3O2)c1OC` (stereo not given), the AC50 under setting [2] is 35.5 µM [rising, single point].

As for `COc1cccc(-c2nc(-c3ccccc3)nc(N3CCN(C)CC3)c2C#N)c1`, the AC50 under setting [2] is 14.1 µM [rising, single point]. For `COc1ccc(CCNC(=O)c2cccnc2)cc1OC`, under setting [1], the AC50 was 20 µM [rising, partial curve, poor fit]. As for `CC(C)(C)n1nnnc1CN1CCN(C(c2ccccc2)c2ccccc2)CC1`, the AC50 under setting [2] is 14.1 µM [rising, single point]. Take `COc1ccc(CCN2C(=O)c3[nH]nc(-c4ccccc4O)c3C2c2cccc(Cl)c2)cc1` (stereo not given): the AC50 is 11.2 µM [falling, partial curve] under setting [1] and 12.6 µM [falling, partial curve] under setting [2].
